Among the data in PubChem BioAssay AID2685 (National Center for Advancing Translational Sciences (NCATS), 2010) are cell number change and AC50 values, retold here.

This assay is described as follows: qHTS Assay for Lipid Storage Modulators in Drosophila S3 Cells.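 As to cell number change: cells counted by Cell Tracker Red CMTPX staining in the red channel.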 The conditions noted are these: BODIPY lipid droplet fluorescence, 18-24 h; for cell number change: measured here: cell count max response, cells fed with added oleic acid. The procedure, abridged:
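Drosophila S3 cells loaded with oleic acid (400 uM, as added) and compounds at several concentrations; lipid droplets imaged by 488-nm laser-scanning cytometry, 500–530 nm intensity and object ratio to cell channel. Percent activity normalized to 20 uM Triacsin C.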

Where [1] appears, read: measured here: lipid fluorescence (Fed channel) AC50, cells fed with added oleic acid.
[2] abbreviates: measured here: cell number channel AC50, cells fed with added oleic acid.

This is one part of the list. The main result of the screen is listed elsewhere. These columns were measured beside it and carry no call. Most of these compounds were active or inconclusive in the main read-out, so they are no random draw. Words in brackets tell the shape of the fitted curve; partial curves, single points and poor fits give uncertain potencies.

Broadly, the AC50 is the midpoint of the concentration-response curve, whichever way the signal moves. The low end stands for activity at low concentration, the high end for activity only at high concentration. For the compound `Cc1nnc(SCC(=O)N2CC(=O)Nc3ccccc32)n1Cc1ccccc1`, the cell number change was determined as 4.6%. The AC50 under setting [1] is 0.146 µM [falling, full curve, poor fit]. With `O=C(COc1ccccc1Br)NCCC1=CCCCC1`, the cell number change was -32.4%. Also, the half-maximal activity concentration (AC50) under setting [2] was 20.6 µM [falling, single point]. Take `CCN(CC)S(=O)(=O)c1cccc(NC(=O)c2ccc(-n3nc(C)cc3C)cc2)c1`: the cell number change came to 2.63%. The AC50 under setting [1] was 18.4 µM [falling, single point].

For the compound `O=C(Nn1c(-c2ccccc2)nc2ccccc2c1=O)c1ccc([N+](=O)[O-])cc1`, the AC50 was 0.731 µM [rising, partial curve, poor fit] under setting [2] and 0.731 µM [rising, partial curve, poor fit] under setting [1].

Take `CCOc1ccc(OCCSc2nc(C)cc(=O)[nH]2)cc1`: the cell number change turned out to be 6.4%. Further, the AC50 under setting [1] was 0.13 µM [falling, full curve, poor fit].

With `O=C(O)c1cc(N/N=C/C(Cl)=C/c2ccccc2)ccc1Cl`, the cell number change was -19.8%. On to `CC1(C)c2ccccc2N(CC(N)=O)C12C=Cc1ccccc1O2` (configuration not stated), for which the cell number change is -25.8%. For the same compound, under setting [2], the AC50 is 0.82 µM [falling, full curve, poor fit]. The AC50 under setting [1] was 0.92 µM [falling, full curve, poor fit]. Consider `COc1ccc([C@H]2CC(=O)C=C(c3ccc(Oc4ccccc4)cc3)C2)cc1OC`, for which the cell number change is -46.7%. Moreover, under setting [2], the half-maximal activity concentration (AC50) is 5.17 µM [falling, single point].

`COc1ccc(C)cc1NS(=O)(=O)c1ccc(Br)s1`: the cell number change came out at 26.8%. The AC50 under setting [1] is 0.651 µM [falling, single point]. On to `CCOC(=O)C1=Nc2ccccc2C1=[N+]=[N-]`, for which the AC50 under setting [2] is 0.116 µM [rising, full curve, poor fit].

Consider `COc1ccccc1C(=O)N/C(=C\c1ccccc1)C(=O)NC(C)C(=O)O` (configuration not stated), for which the cell number change is -13.1%. Moreover, under setting [1], the AC50 was 16.4 µM [falling, single point]. Consider `N#Cc1ccc(C(=O)N/N=C/c2cn(CC(=O)O)c3ccccc23)c(F)c1`, for which the cell number change came to 2.09%. In addition, the AC50 under setting [1] was 7.31 µM [rising, partial curve]. `Cc1cc(S(=O)(=O)NCCN2CCOCC2)c(C)s1`: the cell number change was -79.6%. For the same compound, the AC50 under setting [2] was 18.4 µM [falling, single point]. Further, the AC50 under setting [1] is 29.1 µM [falling, single point].

For `Cc1ccc(NC(=O)CNc2ccc(N3CCOCC3)cc2)cc1S(=O)(=O)N(C)C`, the cell number change was -18.9%. In the case of `O=C(CNC(=O)c1ccco1)N/N=C/c1cc(Br)ccc1O`, the cell number change was 25.7%. Besides, the AC50 under setting [1] is 29.1 µM [falling, single point]. Turning to `Cc1ccccc1NC(=O)c1nc[nH]c1C(=O)NCc1ccccc1`, the cell number change is -8.28%. In the case of `COc1ccc(CCN(C(=O)C(F)(F)F)C(C(=O)NC2CCCCC2)c2cccs2)cc1` (configuration not stated), the cell number change is -30.3%. For the same compound, under setting [2], the AC50 is 14.6 µM [falling, single point]. As to `Cc1ccc(CNC(=O)CNS(=O)(=O)c2ccc(Br)s2)cc1`, the cell number change amounted to 17%. Besides, the AC50 under setting [1] was 29.1 µM [rising, single point]. As for `CCCOc1ccc(N)cc1N`, the cell number change came out at 33.5%. Besides, the AC50 under setting [2] is 3.26 µM [rising, full curve]. For the same compound, the concentration at half-maximal activity (AC50) under setting [1] is 4.11 µM [rising, full curve]. `Cc1ccc(OC(=O)CCNC(=O)c2ccccc2Cl)c(Br)c1`: the cell number change is -10.4%. As to `COc1ccc(S(=O)(=O)N2CCN(C(=O)C3CCCO3)CC2)cc1` (configuration not stated), the cell number change was found to be 17.8%. Moreover, under setting [1], the AC50 is 29.1 µM [rising, partial curve, poor fit]. Regarding `O=C(CSc1nc2ccccc2nc1N1CCOCC1)Nc1ccccc1F`, the cell number change is -5.19%. Also, under setting [1], the half-maximal activity concentration (AC50) is 1.03 µM [falling, full curve]. In the case of `Cc1ccc(NC(=O)Cc2ccc(-c3ccccc3)cc2)nc1`, the cell number change came to 21.8%. The AC50 under setting [1] was 10 µM [rising, partial curve].

Turning to `Cn1c(OCc2cccnc2)nc2c1c(=O)n(Cc1ccc(F)cc1)c(=O)n2C`, the cell number change stood at 6.9%. In addition, the AC50 under setting [2] was 6.51 µM [rising, single point]. `Cc1cc(OCCn2ccnc2)cc(C)c1Cl`: the cell number change is -36.7%. Besides, the AC50 under setting [2] was 5.8 µM [falling, full curve, poor fit]. For `O=c1ccc(S(=O)(=O)N2CCC(Cc3ccccc3)CC2)c[nH]1`, the cell number change is 14.4%. Moreover, the AC50 under setting [2] is 0.259 µM [falling, full curve]. In addition, under setting [1], the AC50 is 1.16 µM [falling, full curve]. For the compound `COc1cc(CCC(=O)OCC(=O)NC(=O)c2ccc(Cl)cc2)cc(OC)c1OC`, the cell number change worked out at 41.9%. In addition, the AC50 under setting [2] is 29.1 µM [rising, single point]. Regarding `CON=C1CCN(c2ncc(C(F)(F)F)cc2Cl)CC1`, the cell number change is -17.9%. The AC50 under setting [1] is 23.1 µM [falling, single point]. `COc1cccc2cc(C(=O)C3=C(O)C(=O)N(CCN(C)C)C3c3ccc(F)cc3)oc12` (configuration not stated): the cell number change came to 11.9%. For the same compound, under setting [1], the AC50 was 0.82 µM [rising, full curve, poor fit]. Turning to `O=C1C=C(c2cccc(Cl)c2O)C[C@@H](c2ccc(Cl)cc2)C1`, the cell number change was 4.36%. Also, the AC50 under setting [2] was 0.517 µM [falling, full curve]. Further, under setting [1], the AC50 was 1.16 µM [falling, full curve]. Consider `CCOc1ccc(S(=O)(=O)N2CCN(c3ccc(OC)cc3)CC2)c2cccnc12`, for which the cell number change turned out to be 32.3%. The half-maximal activity concentration (AC50) under setting [2] is 0.517 µM [rising, full curve, poor fit]. The AC50 under setting [1] is 29.1 µM [falling, single point]. Consider `COc1ccc(CNC(=O)CN2C(=O)CC(c3ccccc3)=Nc3ccccc32)cc1`, for which the cell number change was -16.1%. In the case of `Cc1ccc(C)c(S(=O)(=O)Nc2ccc(C(=O)N3CCC3)cc2)c1`, the cell number change was -9.67%. In the case of `Cc1cccc(NC(=O)c2sc3nc(N)c(C#N)cc3c2N)c1`, the cell number change was -21%.

As for `Cc1cc(C)nc(N2CCC(C(=O)NCCc3ccc(F)cc3)CC2)n1`, the cell number change was -6.05%. Further, the AC50 under setting [1] is 4.11 µM [rising, full curve, poor fit]. For the compound `Cc1nn(CC#N)c(=O)n1-c1ccccc1F`, the cell number change was 6.44%. For the same compound, the concentration at half-maximal activity (AC50) under setting [1] is 0.164 µM [falling, full curve]. Regarding `O=C1CC(c2ccccc2)CN1S(=O)(=O)c1ccccc1` (configuration not stated), the AC50 under setting [1] is 2.06 µM [falling, partial curve]. `O=C(NCc1ccco1)N1c2ccccc2Sc2ccccc21`: the cell number change is 40.8%. Moreover, the AC50 under setting [2] is 20.6 µM [rising, single point]. Further, the AC50 under setting [1] was 0.146 µM [falling, single point].

For `CC1C(=O)C(C)C(c2ccc3c(c2)OCO3)NC1c1ccc2c(c1)OCO2` (configuration not stated), the cell number change was -35.7%. For the same compound, the AC50 under setting [2] is 14.6 µM [falling, partial curve, poor fit]. For the same compound, the AC50 under setting [1] was 14.6 µM [falling, partial curve, poor fit].
